# Assay results taken from PubChem BioAssay AID1508600 (Functional Genomics Laboratory (NCATS/FGL), 2020).
# About 3,700 (7%) of roughly 53,000 sequences were called active.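 How the source made its calls: active means gene knockdowns whose robust z-score for IL-1 alpha signal is at least 2 or at most -2, so actives lie on both sides; inactive means the rest.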 The list shows a part of the results.
# Assay: Components of the Cytosolic LPS Sensing Pathway: Gene Identification via Genome-wide siRNA Screen;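 further: robust z of the log signal after scaling to non-targeting control siRNA wells of the plate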
# Details: RAW264.7 macrophages, IL-1a HTRF, actives lie on both sides, screened at 100 nM (by protocol), cells primed 5 h with Pam3CSK4 first
# How it was run: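 Supernatant IL-1a by HTRF from RAW264.7 cells primed with Pam3CSK4 (5 hours) and transfected with LipidA (24 hour) after 48h siRNA knockdown at 100 nM; cell viability checked with CellTiter-Glo.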
row,Sequence,z-score
1,GGGAACAUACUUCCUAAAGTT against Ermn,inactive: 1.57
2,GGUAUCCCUAACUGGCAGUTT against Tro,inactive: -0.849
3,CCCACUUUAACCCUUUAUUTT against Plppr1,inactive: 0.507
4,CGACGUGAUCACCAAAGGCTT against Map3k14,inactive: -0.454
5,GGAUUUCUAGACUUUAGGATT against Xcr1,inactive: 0.6
6,GGUGAUAGGUGUUAGACUATT against Txnl4a,inactive: 0.657
7,GGUCUCCAUCACAUUCAAGTT against BC024139,inactive: 1.19
8,GGGCUGUUAUUUCAAGAAATT against Galnt13,inactive: -0.173
9,GGAAACCAUCAUGAAGAAATT against Siae,inactive: -0.127
10,CGUAUAAUGAGGAUGUGCUTT against Znrf2,inactive: -0.384
11,GGUAAUUACGACCUAUUGUTT against Aldh7a1,inactive: 0.719
12,ACCUCAGACUCUUCAACUGTT against Olfr112,inactive: -1.61
13,CGUCAGAUUGACAAGGCACTT against Serpinb7,inactive: 0.774
14,GCUAGAUAUAUUUGCCCACTT against Mpp6,inactive: 1.4
15,GGUCUACUGAUAUAAUCAATT against Kif11,inactive: -0.351
16,GGCUAAGGCCACAAAUGUGTT against Tacc3,inactive: -0.371
17,GGCAGCCAGUGUGCUAAAATT against Atp6v1h,inactive: 1.13
18,GGAUGAUGAUGGCUUCAUCTT against 2610528J11Rik,inactive: -1.27
19,GGGAGAUAUCUUCUCAGUATT against Psmb11,inactive: 1.5
20,GGCGACAGCGUAAAAGUACTT against Lyst,inactive: -0.347
21,GCUCCUCUAUAUUUGAAAGTT against Cx3cl1,inactive: -1.49
22,GGAUAUGAUGUCAGACAACTT against Zdhhc13,inactive: -1.13
23,GCCCAGAGUGUUCAAGUGUTT against Zfp236,inactive: 0.968

# A second format for part of the listing above.
row	Sequence	z-score
4	CGACGUGAUCACCAAAGGCTT against Map3k14	inactive: -0.454
14	GCUAGAUAUAUUUGCCCACTT against Mpp6	inactive: 1.4

# Later entries

row,Sequence,z-score
1,GCAAGACUUGUCAUGACACTT against Lnpk,inactive: -1.08
2,GGCUAAUAAGUUCAAUCAATT against Ccn4,inactive: -0.0256
3,GGCAGAACUCAAAUUCUUGTT against AW209491,inactive: -0.35
4,GCCUGAAUUUUUGGGCAUATT against Ripk2,inactive: -0.496
5,GGAAGUUGUCCAAGCAAAUTT against Sesn3,inactive: 0.525
6,GCACAGAAGUUAUUUAGCUTT against Fcho2,inactive: -0.751
7,GCUAGCACAAACAAAAUGUTT against Prr9,inactive: 0.117
8,GGGACUAUUCCUCCAGAGUTT against Cast,inactive: -0.439
9,GGACGAGAAGAUCAACAUCTT against Trim54,inactive: 1.34
10,GGUCCUGAAUUUCAUCCUUTT against B4galnt2,inactive: 0.459
11,CCGAGGAUGCUAUUUAAUCTT against Olfr183,inactive: 1.59
12,GGGUUGGAACAAGGUAAUUTT against Usp16,inactive: -0.546
13,GGGCCAUGUAUCUUGACAUTT against ccdc198,inactive: -0.215
14,GAUAGUGACAUUCUUGGAATT against Hspe1,inactive: -0.0797
15,GGGAACCACACAGAGAUAATT against Cd160,inactive: 0.0108
16,GGUUUGCCAAGAAAACUUATT against Rnf145,inactive: 0.0529
17,GGAGGAAAAUGAUGGAGAGTT against Lysmd1,active: 2.28
18,CCCUUGUACAAUAAUAAAGTT against Romo1,inactive: -0.609
19,GGAUAAGUCAGAGCUAUAUTT against Bicdl2,inactive: -1.05
20,GCAUAAACUUUAGGCAUGGTT against Alg13,inactive: -0.123
21,GGGUCACUGAAGAUUAUAUTT against Inhbc,inactive: 0.0519
22,CCCUCGUCUGAAAUGGAAATT against Nploc4,active: -2.02
23,GGUUAAGGAAGUAAAAAAGTT against Gsr,inactive: -0.487

row,Sequence,z-score
1,GGAGAAUAUGUCGUCAUGATT against Gabra3,inactive: -1.09
2,GUUCCUCAGUAUGUUGCCATT against Olfr126,active: -2.85
3,GGCAGAAUCUGCUUUAGUUTT against Mob2,inactive: 0.441
4,GCCUUCAACAUUCGGACUUTT against Dnase1,inactive: 0.185
5,CCUGCACAGCAAAUACAGUTT against Cenpm,inactive: 0.841
6,GGCCCAUUCAGAUCAUCCATT against Vmn1r65,inactive: -0.197
7,GGUUUAAAGAAAGACUGAATT against 2810032G03Rik,inactive: -0.0773
8,UAAAAUUCCCUUCUGCUCATT against Olfr814,inactive: -0.69
9,GGUGUCAGAACACAUCGCATT against Selenop,inactive: -0.225
10,CCAAUUAUCCCGGGACCUATT against Ctag2,inactive: -1.47
11,CCAGCCUUCAAUUGUGGUCTT against Scn1b,inactive: 0.672
12,GGACAACUGAACUACCUCGTT against Paqr3,inactive: -0.544
13,GGAAAGAAGGACAUGUUGCTT against Fbxo2,inactive: -1.22
14,GGACUGAAUAUCUUCUUUGTT against Rrh,inactive: 0.0063
15,GGUGCUACAAGUGUACUGATT against Zswim2,active: -2.14
16,GGCUCAGGACAUGUAUUACTT against Rab30,inactive: -1.66
17,GGGUCUCUGUAUGCAUAUATT against Dbpht1,inactive: -0.238
18,GGCAGUCAGUUUAAAUAAATT against Prr11,inactive: -0.217
19,GCGGAUUCACUUCUACUACTT against Acer1,inactive: 0.693
20,GCAUCCUGGCUGCUAUCAUTT against Olfr399,inactive: -1.51
21,GGAGACCCAAGUGAUUCUGTT against Eral1,inactive: -1.63
22,CCUGUGGGACUCAAUGUUGTT against 2310039H08Rik,inactive: -0.722

# Part of the list above, bar-delimited:
row | Sequence | z-score
9 | GGUGUCAGAACACAUCGCATT against Selenop | inactive: -0.225
17 | GGGUCUCUGUAUGCAUAUATT against Dbpht1 | inactive: -0.238
18 | GGCAGUCAGUUUAAAUAAATT against Prr11 | inactive: -0.217
